Experiment: Alkylation of msPapA peptides and variants with iodoacetic acid (free thiol check)
Conditions: PapB-treated peptide, 10 mM iodoacetic acid

Substance | carboxymethylation / free thiol after iodoacetic acid treatment
LKQINVIAGVKEPIRAYG^DCSANDA (LKQINVIAGVKEPIRAYGCSANDA) [leader-^DCSANDA] | no carboxymethylation
LKQINVIAGVKEPIRAYGCSAN^DDA (LKQINVIAGVKEPIRAYGCSANDA) [leader-CSAN^DDA] | carboxymethylation is present
LKQINVIAGVKEPIRAYGPCSAN^DDA (LKQINVIAGVKEPIRAYGCSANDA) [leader-^DCSAN^DDA] | carboxymethylation is present
